According to US20250249092A1 (TORAY INDUSTRIES, published 2025):
Residue numbers refer to the chain shown, from its start. No constants are given. Whether binding was seen depends on the method and setting. Some results given as binding are weak or reduced against the parent protein; the word gives no strength.

B1: Conjugate 116 (antibody, human IgG1, V domains shown)
VH: DAELVKPGASVKISCKASGYTFTDHSIHWVQQKPEQGLEWIGYISPGNGNIKYNEKFKGKATLTADKSSSTAYMQLNSLTSEDSAVYFCKRSLGRGGPYYFDYWGQGTTVTVSS
VL: DIVLTQAAPSLPVTPGESVSISCRSSKSLLHSNGNTYLYWFLQRPGQSPQLLIYRMSNLASGVPDRFSGSGSGTAFTLRISRVEAEDVGVYYCMQHREYPVTFGSGPN
B2: Conjugate 121 (antibody, human IgG1, V domains shown)
VH: EVQLHQFGAELVKPGASVKISCKASGYTFTDYNMDWVKQSHGKSLEWIGDINPNYDSTSYNQKFKGKATLTVDKSSSTAYMELRSLTSEDTAVYYCARSRSYDYEGFAYWGQGTLVTVSA
VL: DIQMTQSPASLSASVGETVTITCRASGNIHNYLAWYQQKQGKSPQLLVYNAKTLADGVPSRFSGSGSGTQYSLKINSLQPEDFGSYYCQHFWSTLTFGAGTKLELKR
B3: Conjugate 132 (antibody, human IgG1, V domains shown)
VH: GPDLVKPGASVKISCKASGYSFTAYYMHWVKQSHGKSLEWIGRVNPNNGGTTYNQKFKGKAILTVDKSSSTAYMELRSLTFEDSAVYYCARRIYYGYFDYWGQGTTVTVSS
VL: AFFAVSLGQRATISCKASQSVDYDGDSYMNWYQQKPGQPPKLLIYVASNLESGVPARFSGSGSGTDFTLNIHPVEEEDAATYYCQQSNEDPYTFGGGTKLEIKQ
B4: Conjugate 138 (antibody, human IgG1, V domains shown)
VH: EVQLVESGGGLVQPGGSLRLSCAASGFSLSSHSLGWVRQAPGKGLEWIGDIRSGGSAYYANWAKGRFTISRDNSKNTLYLQMNSLRAEDTAVYYCTRTNGPSDLTNRLDLWGQGTLVTVSS
VL: QVLTQSPSSLSASVGDRVTINCQASQSLYNNENLAWFQQKPGKVPKRLIYGASTLASGVSSRFSGSGSGTEFTLTISSLQCEDFAIYYCLGEFSCGSADCFAFGGGTKVEIK
B5: Conjugate 139 (antibody, human IgG1, V domains shown)
VH: B4 VH with Y94F
VL: B4 VL
B6: Conjugate 140 (antibody, human IgG1, V domains shown)
VH: B4 VH
VL: EQVLTQSPSSLSASVGDRVTINCQASQSLYNNENLAWFQQKPGKVPKRLIYGASTLASGVSSRFSGSGSGTEFTLTISNLQPEDFAIYYCLGEFSCGSADCFAFGGGTKVEIK
B7: Conjugate 141 (antibody, human IgG1, V domains shown)
VH: B4 VH with Y94F
VL: B6 VL with Q2I, I87T
B8: Conjugate 142 (antibody, human IgG1, V domains shown)
VH: B4 VH
VL: B6 VL with Q2I, I87T
B9: Conjugate 143 (antibody, human IgG1, V domains shown)
VH: B4 VH with Y94F
VL: B6 VL
B10: Conjugate 144 (antibody, human IgG1, V domains shown)
VH: AVTLDESGGGLQTPGGALSLVCKASGFTFSGYDMLWVRQAPGKGLEWVAGIGSTGGGTDYGAAVKGRATISRDNGQSTVRLQLNNLRAEDTATYYCAKVAGGCNSGYCRDSPGSIDAWGHGTEVIVS
VL: AVTQQPASVSANPGETVKITCSGGGSRNYYGWYQQKSPGSVPVTVIYYDDQRPSNIPSRFSGALSGSTSTLTITGVQADDEAVYFCGSADSNTYEGSFGAGTTLTVL
B11: Conjugate 148 (antibody, human IgG1, V domains shown)
VH: GAELVRSGASVKMSCKASGYSFTDYNMYWVKQTPGQGLEWIGYIYPGNGGTNYNQKFKGKATLTADTSSSTAYMQISSLTSEDSAVYFCARDYDDGGYAMDYWGQGTTVTVSS
VL: DIQMTQSPASLSASVGETVTITCRASGNIHNYLTWYQQKQGKSPQLLVYNAKTLADGVPSRFSGSGSGTQYSLKINRLQPEDFGSYYCQHFWNIPWTFGGGTKLNSR
B12: Conjugate 149 (antibody, human IgG1, V domains shown)
VH: B1 VH
VL: B1 VL
B13: Conjugate 154 (antibody, human IgG1, V domains shown)
VH: B2 VH
VL: B2 VL
B14: Conjugate 165 (antibody, human IgG1, V domains shown)
VH: B3 VH
VL: B3 VL
B15: Conjugate 171 (antibody, human IgG1, V domains shown)
VH: B4 VH
VL: B4 VL
B16: Conjugate 172 (antibody, human IgG1, V domains shown)
VH: B4 VH with Y94F
VL: B4 VL
B17: Conjugate 173 (antibody, human IgG1, V domains shown)
VH: B4 VH
VL: B6 VL
B18: Conjugate 174 (antibody, human IgG1, V domains shown)
VH: B4 VH with Y94F
VL: B6 VL with Q2I, I87T
B19: Conjugate 175 (antibody, human IgG1, V domains shown)
VH: B4 VH
VL: B6 VL with Q2I, I87T
B20: Conjugate 176 (antibody, human IgG1, V domains shown)
VH: B4 VH with Y94F
VL: B6 VL
B21: Conjugate 45 (antibody, human IgG1, V domains shown)
VH: B10 VH
VL: B10 VL

Molecular target: T1, CAPRIN-1 protein (UniProt Q14444)
T1 sequence (looked up): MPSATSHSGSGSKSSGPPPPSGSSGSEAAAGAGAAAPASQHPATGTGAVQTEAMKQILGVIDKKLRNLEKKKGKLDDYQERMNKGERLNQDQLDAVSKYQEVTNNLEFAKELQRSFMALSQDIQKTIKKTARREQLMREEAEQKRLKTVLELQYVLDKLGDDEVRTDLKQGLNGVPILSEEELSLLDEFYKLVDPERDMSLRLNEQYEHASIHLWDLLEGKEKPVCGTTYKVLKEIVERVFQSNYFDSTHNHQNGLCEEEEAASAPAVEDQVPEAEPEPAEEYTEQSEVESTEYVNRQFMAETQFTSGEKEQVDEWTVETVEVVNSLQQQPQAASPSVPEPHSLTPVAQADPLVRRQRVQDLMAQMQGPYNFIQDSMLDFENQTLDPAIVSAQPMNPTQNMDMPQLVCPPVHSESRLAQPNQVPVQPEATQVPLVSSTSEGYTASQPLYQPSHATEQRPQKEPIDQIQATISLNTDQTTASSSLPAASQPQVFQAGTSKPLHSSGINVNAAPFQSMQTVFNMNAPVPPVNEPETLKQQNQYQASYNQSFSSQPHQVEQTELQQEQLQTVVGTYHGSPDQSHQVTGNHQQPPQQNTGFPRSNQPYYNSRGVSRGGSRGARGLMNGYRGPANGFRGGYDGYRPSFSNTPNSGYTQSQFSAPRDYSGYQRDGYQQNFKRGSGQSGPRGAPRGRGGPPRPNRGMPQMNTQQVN
Test: ELISA

Row | Binder | binding
1 | B1 | binds
2 | B2 | binds
3 | B3 | binds
4 | B4 | binds
5 | B5 | binds
6 | B6 | binds
7 | B7 | binds
8 | B8 | binds
9 | B9 | binds
10 | B10 | binds
11 | B11 | binds
12 | B12 | binds
13 | B13 | binds
14 | B14 | binds
15 | B15 | binds
16 | B16 | binds
17 | B17 | binds
18 | B18 | binds
19 | B19 | binds
20 | B20 | binds
21 | B21 | binds

Molecular target: T2, CAPRIN-1 protein on the cell membrane surface of cancer cells (UniProt Q14444)
T2 sequence (looked up): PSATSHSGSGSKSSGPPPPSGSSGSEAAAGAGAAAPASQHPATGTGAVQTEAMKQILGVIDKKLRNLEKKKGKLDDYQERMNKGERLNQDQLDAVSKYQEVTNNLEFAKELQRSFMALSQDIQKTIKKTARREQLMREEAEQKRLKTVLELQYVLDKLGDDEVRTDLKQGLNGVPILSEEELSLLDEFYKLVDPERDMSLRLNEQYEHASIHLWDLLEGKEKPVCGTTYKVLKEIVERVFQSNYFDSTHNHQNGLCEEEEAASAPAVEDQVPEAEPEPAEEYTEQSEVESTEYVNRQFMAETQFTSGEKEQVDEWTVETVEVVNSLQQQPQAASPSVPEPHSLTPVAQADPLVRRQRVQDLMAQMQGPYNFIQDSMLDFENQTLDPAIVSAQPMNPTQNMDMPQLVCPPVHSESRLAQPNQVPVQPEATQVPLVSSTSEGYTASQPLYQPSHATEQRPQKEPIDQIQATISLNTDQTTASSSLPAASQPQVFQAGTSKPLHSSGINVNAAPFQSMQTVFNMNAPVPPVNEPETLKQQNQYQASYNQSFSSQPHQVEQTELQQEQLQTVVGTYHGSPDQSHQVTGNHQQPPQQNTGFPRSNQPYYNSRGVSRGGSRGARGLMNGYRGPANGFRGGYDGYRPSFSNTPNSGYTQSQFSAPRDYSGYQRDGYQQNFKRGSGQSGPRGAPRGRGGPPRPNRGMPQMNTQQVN
Test: flow cytometry

Row | Binder | binding
22 | B1 | binds
23 | B2 | binds
24 | B3 | binds
25 | B4 | binds
26 | B5 | binds
27 | B6 | binds
28 | B7 | binds
29 | B8 | binds
30 | B9 | binds
31 | B10 | binds
32 | B11 | binds
33 | B12 | binds
34 | B13 | binds
35 | B14 | binds
36 | B15 | binds
37 | B16 | binds
38 | B17 | binds
39 | B18 | binds
40 | B19 | binds
41 | B20 | binds
42 | B21 | binds
